In this assay the target is DC-SIGN-Fc (UniProt Q9NNX6). Put plainly: affinity purification with mass spectrometry; DC-SIGN-Fc coated agarose beads incubated overnight with pooled colorectal mucus of 6 DC-SIGN high binders (flow-through of a Protein A/G column); two washes; boiled with DTT, 4-12% SDS PAGE; bands 2, 3 and 4 cut out, tryptic digest, ion trap mass spectrometry, Mascot; only the target purified.

Sequences of proteins named here, by UniProt entry; tags and fusion partners are left off. Residues count along the entry.
UniProt Q9NNX6, residues 59-404: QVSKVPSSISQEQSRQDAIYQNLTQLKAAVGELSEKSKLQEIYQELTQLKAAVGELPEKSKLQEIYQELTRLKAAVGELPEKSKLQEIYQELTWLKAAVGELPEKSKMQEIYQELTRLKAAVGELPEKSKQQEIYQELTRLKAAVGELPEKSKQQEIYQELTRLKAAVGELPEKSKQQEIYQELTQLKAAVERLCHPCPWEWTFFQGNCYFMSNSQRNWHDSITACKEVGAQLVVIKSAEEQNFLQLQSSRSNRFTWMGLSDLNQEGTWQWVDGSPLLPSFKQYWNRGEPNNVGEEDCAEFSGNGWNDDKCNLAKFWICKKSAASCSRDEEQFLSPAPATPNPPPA
UniProt P02788, residues 20-710: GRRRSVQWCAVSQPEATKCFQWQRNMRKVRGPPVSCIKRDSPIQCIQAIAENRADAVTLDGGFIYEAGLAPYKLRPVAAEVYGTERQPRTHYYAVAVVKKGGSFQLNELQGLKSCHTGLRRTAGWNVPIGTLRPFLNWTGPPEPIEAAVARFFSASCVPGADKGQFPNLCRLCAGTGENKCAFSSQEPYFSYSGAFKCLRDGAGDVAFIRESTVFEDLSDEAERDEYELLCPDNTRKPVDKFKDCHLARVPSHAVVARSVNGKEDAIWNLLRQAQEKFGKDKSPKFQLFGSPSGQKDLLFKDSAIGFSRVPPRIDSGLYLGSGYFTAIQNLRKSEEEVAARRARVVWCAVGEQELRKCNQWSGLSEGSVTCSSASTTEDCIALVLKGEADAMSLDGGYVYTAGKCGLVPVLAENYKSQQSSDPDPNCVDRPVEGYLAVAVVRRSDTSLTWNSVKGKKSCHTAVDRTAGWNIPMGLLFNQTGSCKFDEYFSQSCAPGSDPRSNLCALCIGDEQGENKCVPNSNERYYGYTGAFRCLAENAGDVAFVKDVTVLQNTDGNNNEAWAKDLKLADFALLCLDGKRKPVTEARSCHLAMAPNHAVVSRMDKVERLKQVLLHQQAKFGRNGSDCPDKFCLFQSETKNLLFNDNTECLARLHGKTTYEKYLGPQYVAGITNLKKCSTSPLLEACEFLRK

Results are given in words; binding and its absence hold for the method and conditions named. Binding seen in cells or lysates may run through a third protein. Here binding means that the protein was enriched with, or labelled near, the bait; the list need not be complete.

For “human lactoferrin from colorectal mucus (from UniProt P02788 20-710)”, the binding result was “binds”.
